Values from PubChem BioAssay AID652272 (Drosophila RNAi Screening Center, 2013)
The deposit covers about 21,000 reagents; shown is an unselected part of those that have a named target and a result. Of all reagents, 503 (2.4%) were called active. 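Raw plate light values, not normalised; calls rest on replicate z-scores that were not deposited; hits include reporter decreases as well as increases.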 Not given: the amount of reagent, the time to read-out.

Aim: 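Genome-wide knock-down search for components of Hedgehog signalling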 (primary screen)
System: Drosophila clone 8 (Cl8) cells
Knock-down reagent: long dsRNA against Drosophila genes
Measurement: 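Plate reader light from a firefly reporter under a ptc promoter fragment that responds to Hedgehog, with Renilla light as transfection reference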
Reading the numbers: firefly Hh reporter signal: higher = more ptc reporter light; Renilla reference signal: higher = more Renilla control light
Call rule: 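Hit when the z-score averaged over two replicates is under -2 or over +3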
Calls: active = hit: reporter lowered or raised; inactive = not a hit

gene	dsRNA	firefly Hh reporter signal, replicate 1	firefly Hh reporter signal, replicate 2	firefly Hh reporter signal, replicate 3	Renilla reference signal, replicate 1	Renilla reference signal, replicate 2	call
CG11986 (GeneID 41083)	DRSC14461	1.07e5	82232		4114	3442	inactive
P5CDh1 (GeneID 40434)	DRSC11801	88490	78093		2960	3622	inactive
CG10589 (GeneID 40313)	DRSC11629	1.01e5	1.18e5		4073	3664	inactive
CG30020 (GeneID 36156)	DRSC06252	4.91e5	67520		3962	3962	inactive
CG30020 (GeneID 36156)	DRSC06730	1.03e5	42312		2376	336	inactive
CG5478 (GeneID 41936)	DRSC15814	98484	1.14e5		2824	3062	inactive
Karybeta3 (GeneID 40581)	DRSC12355	71955	59402		3141	1667	inactive
CG15117 (GeneID 37197)	DRSC06539	95681	63985		4074	2866	inactive
CG12995 (GeneID 32707)	DRSC19515	73200	1.50e5		2055	6077	inactive
dcma (GeneID 5740672)	DRSC00246	6.47e5	2.16e5		33381	10005	inactive
dcma (GeneID 5740672)	DRSC00338	1.11e5	1.03e5		2433	7476	inactive
CG4611 (GeneID 38601)	DRSC10434	59923	74061		5722	5825	inactive
caup (GeneID 39440)	DRSC11334	60851	27192	28128	2996	1651	inactive
CG30154 (GeneID 246487)	DRSC05889	1.26e5	2.68e5		3552	11399	inactive
Ugt36F1 (GeneID 35137)	DRSC02601	83365	57047		2038	5140	inactive
CG43446 (GeneID 12798498)	DRSC13458	58396	1.99e5		12273	4898	inactive
Meics (GeneID 39539)	DRSC11413	58954	44944	41158	7093	2134	inactive
scb (GeneID 36692)	DRSC05542	1.93e5	2.47e5		5076	11488	inactive
scb (GeneID 36692)	DRSC07678	71483	61570		1332	4226	inactive
SamDC (GeneID 34396)	DRSC03429	1.35e5	75729		5084	3226	inactive
18w (GeneID 37277)	DRSC05029	72144	66827		3143	2715	inactive
bsd (GeneID 36302)	DRSC05953	73712	28883		1473	1866	inactive
CG30109 (GeneID 246461)	DRSC05675	1.10e5	2.60e5		3210	9405	inactive
Jupiter (GeneID 41392)	DRSC15204	1.05e5	77555		4899	3621	inactive
Jupiter (GeneID 41392)	DRSC15205	88592	1.24e5		2661	6153	inactive
Jupiter (GeneID 41392)	DRSC15389	78932	1.22e5		2288	6016	inactive
CG3604 (GeneID 33593)	DRSC00618	1.35e5	39755		3520	4825	inactive
CG7264 (GeneID 39339)	DRSC10793	50688	44994	52676	4538	3930	inactive
norpA (GeneID 31376)	DRSC18806	92253	1.04e5		1528	3554	inactive
CG5726 (GeneID 37082)	DRSC06946	82485	46669		4551	2156	inactive

Next part, starting with the last 8 of the part before.
gene	dsRNA	firefly Hh reporter signal, replicate 1	firefly Hh reporter signal, replicate 2	firefly Hh reporter signal, replicate 3	Renilla reference signal, replicate 1	Renilla reference signal, replicate 2	call
CG30109 (GeneID 246461)	DRSC05675	1.10e5	2.60e5		3210	9405	inactive
Jupiter (GeneID 41392)	DRSC15204	1.05e5	77555		4899	3621	inactive
Jupiter (GeneID 41392)	DRSC15205	88592	1.24e5		2661	6153	inactive
Jupiter (GeneID 41392)	DRSC15389	78932	1.22e5		2288	6016	inactive
CG3604 (GeneID 33593)	DRSC00618	1.35e5	39755		3520	4825	inactive
CG7264 (GeneID 39339)	DRSC10793	50688	44994	52676	4538	3930	inactive
norpA (GeneID 31376)	DRSC18806	92253	1.04e5		1528	3554	inactive
CG5726 (GeneID 37082)	DRSC06946	82485	46669		4551	2156	inactive
az2 (GeneID 35682)	DRSC07580	1.04e5	54746		4151	1133	inactive
Vps11 (GeneID 317987)	DRSC11909	3.25e5			6165		inactive
CG33500 (GeneID 2768957)	DRSC09115	96496	2.06e5		3640	12186	active
CG12224 (GeneID 41453)	DRSC14480	1.16e5	88693		4616	1778	inactive
CG10182 (GeneID 42780)	DRSC14202	4.77e5	1.07e5		26433	3430	inactive
Srrm234 (GeneID 38206)	DRSC07955	97763	1.82e5		3211	8220	inactive
Srrm234 (GeneID 38206)	DRSC08606	65171	61484		3024	2167	inactive
Naa30B (GeneID 317976)	DRSC08245	90615	44580		2464	3316	inactive
Fer2 (GeneID 41961)	DRSC15925	1.02e5	1.12e5		1705	3683	inactive
CG6421 (GeneID 46813)	DRSC07420	78996	62449		2166	4771	inactive
Dnai2 (GeneID 39318)	DRSC10575	37308	48240	64568	4842	4256	inactive
Atu (GeneID 40684)	DRSC12123	1.38e5	90406		4528	3707	inactive
boca (GeneID 48986)	DRSC06408	95341	58691		2240	4411	inactive
CG41099 (GeneID 3355072)	DRSC21049	45046	1.79e5		550	7504	inactive
CG41099 (GeneID 3355072)	DRSC21051	59337	1.89e5		1191	7840	inactive
Gpat4 (GeneID 37852)	DRSC04345	1.39e5	71473		4763	3254	inactive
CCKLR-17D1 (GeneID 32860)	DRSC20010	1.23e5	3.44e5		2266	13637	inactive
CCKLR-17D1 (GeneID 32860)	DRSC20011	84729	2.47e5		1312	9824	inactive
CCKLR-17D1 (GeneID 32860)	DRSC20012	62525	2.50e5		1411	10064	inactive
CG34428 (GeneID 5740867)	DRSC10119	38085	39234	53833	3881	3440	inactive
org-1 (GeneID 31778)	DRSC18810	99741	1.53e5		3484	7147	inactive
CG9705 (GeneID 39875)	DRSC11094	1.89e5	1.09e5		7515	4817	inactive
Nup154 (GeneID 34527)	DRSC03384	51217	47698		2632	2525	inactive
Chmp1 (GeneID 40036)	DRSC10401	86803	51127		3494	1733	inactive
Nurf-38 (GeneID 37922)	DRSC04629	58923	57373		1196	5227	inactive
CG12237 (GeneID 32967)	DRSC19449	1.54e5	7.92e5	1.13e5	3573	41344	inactive
da (GeneID 34413)	DRSC03517	1.43e5	89017		3680	7835	inactive
